Data as given in US20230340132A1, “ANTI-ADENOSINE RECEPTOR (A2aR) ANTIBODIES” (NA Biotech Corp, priority 2020, published 2023).
No constants are given. Whether binding was seen depends on the method and setting. Some entries that bind do so weakly or less than the wild type. Where a sequence is shown, tags or fusion partners need not be part of it.

How the values were obtained:
[1] = target: T1, human adenosine A2A receptor (A2aR) (human, UniProt P29274 1-412); assay: flow cytometry on human PBMC (legend of FIG. 6)
[2] = target: cynomolgus adenosine A2A receptor (A2aR) (cynomolgus); assay: flow cytometry on cynomolgus PBMC (legend of FIG. 6)
[3] = target: cynomolgus adenosine A2A receptor (A2aR) (cynomolgus); assay: flow cytometry on cynomolgus PBMC; antibody 2 ug/ml; rabbit Fc format
[4] = target: T1, human adenosine A2A receptor (A2aR); assay: flow cytometry on human PBMC; antibody 2 ug/ml; rabbit Fc format

binding [1]: binds | binding [2]: binds | binding [3]: binds | binding [4]: binds
B1: anti-human A2aR clone 3F6-9G5 at rabbit Fc format (antibody, V domains shown)
VH: QVQLQQPGTELVKPGAPVRLSCKASGFAFTSYWMNWVRQRPGRGLEWIGRIDPSDSEAHYHHKFWGKATLTVDKSSSTVYIQLNGLTSEDSAVYYCLRSLYGKGDYWGHGTTLTVSS
VL: DVLMTQTPLSLSVRLGDQASISCRSSQSLVHRNGNTYLEWYLQRPGQSPKLLIYKVSNRFSGVPDRFSGSGSGTDFTLKISRVEAEDLGVYYCYQGSHVPLTFGSGTKLEIK
